# Experimental data taken from article PMC12698188.
# Protein sequences, listed by entry. Tags and fused reporters are not part of them.
# UniProt Q969H0: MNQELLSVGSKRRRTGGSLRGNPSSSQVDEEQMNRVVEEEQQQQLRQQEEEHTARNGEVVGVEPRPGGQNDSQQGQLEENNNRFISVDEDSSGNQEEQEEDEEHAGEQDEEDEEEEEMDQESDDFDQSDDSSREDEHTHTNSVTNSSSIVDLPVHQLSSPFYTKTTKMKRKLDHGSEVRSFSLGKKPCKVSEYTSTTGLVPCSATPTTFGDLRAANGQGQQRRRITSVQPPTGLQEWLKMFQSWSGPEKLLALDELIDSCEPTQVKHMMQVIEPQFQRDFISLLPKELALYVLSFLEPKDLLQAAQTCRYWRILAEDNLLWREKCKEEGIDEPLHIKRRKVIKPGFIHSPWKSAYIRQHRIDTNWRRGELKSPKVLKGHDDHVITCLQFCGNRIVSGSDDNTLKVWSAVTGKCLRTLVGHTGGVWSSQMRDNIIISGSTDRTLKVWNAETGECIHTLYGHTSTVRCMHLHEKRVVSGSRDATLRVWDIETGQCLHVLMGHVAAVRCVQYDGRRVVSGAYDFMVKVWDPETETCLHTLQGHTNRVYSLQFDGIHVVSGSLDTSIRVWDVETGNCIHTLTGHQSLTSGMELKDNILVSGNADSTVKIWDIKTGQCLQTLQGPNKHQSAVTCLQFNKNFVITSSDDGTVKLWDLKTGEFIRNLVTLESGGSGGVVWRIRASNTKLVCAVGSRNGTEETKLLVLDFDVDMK
# Molecular target: T1, glutaminyl tRNA synthetase (QARS), Flag-tagged (human) (UniProt P47897)
# T1 sequence: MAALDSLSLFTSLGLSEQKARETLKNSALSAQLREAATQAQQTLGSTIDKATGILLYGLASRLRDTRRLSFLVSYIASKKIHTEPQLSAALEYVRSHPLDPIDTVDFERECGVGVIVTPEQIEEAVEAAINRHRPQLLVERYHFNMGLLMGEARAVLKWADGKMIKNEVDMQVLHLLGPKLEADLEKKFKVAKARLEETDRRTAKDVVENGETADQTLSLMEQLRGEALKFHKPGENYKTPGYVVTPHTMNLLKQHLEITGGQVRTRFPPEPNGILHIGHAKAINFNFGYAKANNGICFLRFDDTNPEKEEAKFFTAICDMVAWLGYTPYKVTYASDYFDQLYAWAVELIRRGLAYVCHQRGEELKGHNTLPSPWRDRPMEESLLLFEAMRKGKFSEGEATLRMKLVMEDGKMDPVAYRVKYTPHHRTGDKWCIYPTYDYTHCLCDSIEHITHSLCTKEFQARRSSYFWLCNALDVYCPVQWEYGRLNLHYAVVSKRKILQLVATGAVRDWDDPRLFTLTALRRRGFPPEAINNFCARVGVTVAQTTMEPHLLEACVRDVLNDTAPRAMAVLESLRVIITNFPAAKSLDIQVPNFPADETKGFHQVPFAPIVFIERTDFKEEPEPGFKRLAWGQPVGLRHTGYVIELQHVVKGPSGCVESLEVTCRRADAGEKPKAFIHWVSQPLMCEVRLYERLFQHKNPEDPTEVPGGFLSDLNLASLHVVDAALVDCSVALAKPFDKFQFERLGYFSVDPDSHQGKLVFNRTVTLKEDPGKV
# Test: affinity purification with mass spectrometry; TAP-MS: HCT116+/+ cells transfected with pcDNA3.1-Flag or pcDNA3.1-QARS-Flag, immunoprecipitation after 36 h, trypsin digestion, UPLC-QE MS/MS
substance,measurement,value
"F-box and WD repeat domain-containing 7 (FBW7), in HCT116+/+ cells (from UniProt Q969H0 1-707)",binding,binds

# No constants are given. Whether binding was seen depends on the method and setting. In cells and extracts the contact can be indirect. Here binding means that the protein was enriched with, or labelled near, the bait; the list need not be complete. Tags and fused reporters may be left off the sequences shown.
